Data as given in PubChem BioAssay AID1259308 (NCATS, 2017).

Assay: 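Candidate targets for better recombinant protein yield in mammalian cells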 (primary screen)
System: human HEK293 embryonic kidney cells stably expressing firefly luciferase (HEK-CMV-Luc2-Hygro)
Knock-down reagent: single siRNA against human genes, 0.8 pmol siRNA per well
Duration: 72 h
Measured: 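Luciferase light (ONE-Glo) measured on one replicate plate set and viability (CellTiter-Glo) on the other, scaled to a negative control siRNA, with robust z-scores and luciferase per cell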
Reading the numbers: total luciferase, z-score and total luciferase, % of control: higher = more reporter protein produced
Rule for the call: 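Active when the median/MAD z-score for overall luciferase is greater than 3; a gene was taken forward for validation with new siRNAs if at least two of its three siRNAs passed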
Calls: active = raised luciferase; inactive = no rise
The whole screen tested about 59,000 reagents; this is an unselected part. Of all reagents, about 1,510 (2.6%) are marked active. 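Calls use total luciferase alone and ignore viability, so some active siRNAs may act by altering cell number.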 Reagents against one gene are numbered here. Not all columns of the deposit are shown. No sequences are given here.

no.	gene	reagent	total luciferase, z-score	total luciferase, % of control	activity call
1	RFXANK	1	1.01	102	inactive
2	RFXANK	2	-0.491	72.1	inactive
3	RFXANK	3	-0.0893	80.1	inactive
4	STX1B	1	-0.839	65.2	inactive
5	STX1B	2	1.79	117	inactive
6	STX1B	3	1.17	105	inactive
7	FLJ32255	1	0.0796	83.5	inactive
8	FLJ32255	2	-0.121	79.5	inactive
9	FLJ32255	3	-0.116	79.6	inactive
10	TFAP2A	1	-1.6	50.1	inactive
11	TFAP2A	2	0.648	94.8	inactive
12	TFAP2A	3	0.289	87.6	inactive
13	KRT12	1	2.75	137	inactive
14	KRT12	2	0.553	92.9	inactive
15	KRT12	3	-0.105	79.8	inactive
16	PENK	1	0.592	93.7	inactive
17	PENK	2	-1.32	55.6	inactive
18	PENK	3	0.246	86.8	inactive
19	TMEM89	1	1.36	109	inactive
20	TMEM89	2	3.29	147	active
21	TMEM89	3	0.0694	83.3	inactive
22	NAT2	1	-0.452	72.9	inactive
23	NAT2	2	0.114	84.2	inactive
24	NAT2	3	-0.624	69.5	inactive
25	PLBD1	1	1.68	115	inactive
26	PLBD1	2	-1.02	61.7	inactive
27	PLBD1	3	-0.34	75.1	inactive
28	TET1	1	-0.397	74	inactive
29	TET1	2	0.312	88.1	inactive
30	TET1	3	4.1	163	active
31	RAB35	1	0.411	90.1	inactive
32	RAB35	2	0.613	94.1	inactive
33	RAB35	3	0.293	87.7	inactive
34	PRXL2B	1	1.51	112	inactive
35	PRXL2B	2	-0.59	70.1	inactive
36	PRXL2B	3	0.941	101	inactive
37	ZNF33B	1	-0.693	68.1	inactive
38	ZNF33B	2	-0.401	73.9	inactive
39	ZNF33B	3	-1.92	43.7	inactive
40	SHISAL2A	1	0.472	91.3	inactive
41	SHISAL2A	2	-1.01	61.7	inactive
42	SHISAL2A	3	0.00926	82.1	inactive
43	THBD	1	1.89	119	inactive
44	THBD	2	0.753	96.9	inactive
45	THBD	3	-1.34	55.2	inactive
46	ZNF277	1	0.841	98.6	inactive
47	ZNF277	2	-1.38	54.5	inactive
48	ZNF277	3	-1.31	55.8	inactive
49	AGAP3	1	0.102	83.9	inactive
50	AGAP3	2	-0.21	77.7	inactive
51	AGAP3	3	0.499	91.8	inactive
52	ERMP1	1	1.13	104	inactive
53	ERMP1	2	1.44	111	inactive
54	ERMP1	3	1.17	105	inactive
55	UQCC6	1	1.81	118	inactive
56	UQCC6	2	-0.131	79.3	inactive
57	UQCC6	3	-0.394	74	inactive

10 entries already listed, ordered by “total luciferase, z-score”, highest first.
gene	reagent	total luciferase, z-score	total luciferase, % of control	activity call
KRT12	1	2.75	137	inactive
STX1B	2	1.79	117	inactive
STX1B	3	1.17	105	inactive
TFAP2A	2	0.648	94.8	inactive
KRT12	2	0.553	92.9	inactive
TFAP2A	3	0.289	87.6	inactive
FLJ32255	1	0.0796	83.5	inactive
FLJ32255	3	-0.116	79.6	inactive
FLJ32255	2	-0.121	79.5	inactive
TFAP2A	1	-1.6	50.1	inactive
